{"source": "PubChem BioAssay AID504784 (Drosophila RNAi Screening Center, 2011)", "assay": "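Fly genes whose silencing alters how much lipid cells keep in droplets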 (primary screen)", "cells": "Drosophila Kc167 embryonic cells", "reagent": "long dsRNA against Drosophila genes, about 250 ng dsRNA per well", "time to read-out": "4 days", "conditions": "cells fed 400 µM oleic acid bound to BSA", "detection": "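Cells imaged and segmented; ratio of lipid droplet area to nuclear area, log-transformed, then normalised as a B-score over the screen; higher means more stored lipid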", "direction": "droplet/nuclear area B-score: higher = more stored lipid (overstorage)", "note": "In all, the deposit lists about 17,000 reagents; this is an unselected part of those with a known target gene and a result. 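Each column is one replicate's B-score; the combined score over replicates was not deposited, so single values may mislead.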 Names joined by + are all predicted targets of the reagent. Not all columns of the deposit are shown."}
{"gene knocked down":"sisA","dsRNA":"DRSC20374","droplet/nuclear area B-score, replicate 1":0.0123}
{"gene knocked down":"CG40191","dsRNA":"DRSC21041","droplet/nuclear area B-score, replicate 1":-0.729}
{"gene knocked down":"Prosalpha1R + Prosalpha1","dsRNA":"DRSC07515","droplet/nuclear area B-score, replicate 1":-1.61}
{"gene knocked down":"CG7601","dsRNA":"DRSC14131","droplet/nuclear area B-score, replicate 1":-2.05}
{"gene knocked down":"CG8915","dsRNA":"DRSC20119","droplet/nuclear area B-score, replicate 1":0.427}
{"gene knocked down":"CG7668","dsRNA":"DRSC10901","droplet/nuclear area B-score, replicate 1":0}
{"gene knocked down":"Smyd4-2 (SET and MYND domain containing, class 4, member 2)","dsRNA":"DRSC10126","droplet/nuclear area B-score, replicate 1":0.713}
{"gene knocked down":"mRpL46 (mitochondrial ribosomal protein L46)","dsRNA":"DRSC08391","droplet/nuclear area B-score, replicate 1":0.0424}
{"gene knocked down":"CG12259","dsRNA":"DRSC14486","droplet/nuclear area B-score, replicate 1":-0.0955}
{"gene knocked down":"CG12259","dsRNA":"DRSC23281","droplet/nuclear area B-score, replicate 1":0.728}
{"gene knocked down":"CG5160","dsRNA":"DRSC02821","droplet/nuclear area B-score, replicate 1":0.0096}
{"gene knocked down":"Csl4","dsRNA":"DRSC02944","droplet/nuclear area B-score, replicate 1":0.441}
{"gene knocked down":"Csl4","dsRNA":"DRSC22664","droplet/nuclear area B-score, replicate 1":-0.726}
{"gene knocked down":"Rh5 (Rhodopsin 5)","dsRNA":"DRSC03412","droplet/nuclear area B-score, replicate 1":-0.0318}
{"gene knocked down":"Elp3 (Elongator complex protein 3)","dsRNA":"DRSC00448","droplet/nuclear area B-score, replicate 1":-0.257}
{"gene knocked down":"ema (endosomal maturation defective)","dsRNA":"DRSC14536","droplet/nuclear area B-score, replicate 1":-1.05}
{"gene knocked down":"CG1582","dsRNA":"DRSC19732","droplet/nuclear area B-score, replicate 1":0.377}

Next part, starting with the last 2 of the part before.
{"gene knocked down":"ema (endosomal maturation defective)","dsRNA":"DRSC14536","droplet/nuclear area B-score, replicate 1":-1.05}
{"gene knocked down":"CG1582","dsRNA":"DRSC19732","droplet/nuclear area B-score, replicate 1":0.377}
{"gene knocked down":"CG12126","dsRNA":"DRSC06103","droplet/nuclear area B-score, replicate 1":0.111}
{"gene knocked down":"MED27 (Mediator complex subunit 27)","dsRNA":"DRSC12205","droplet/nuclear area B-score, replicate 1":0.583}
{"gene knocked down":"Idi (Isopentenyl-diphosphate delta isomerase)","dsRNA":"DRSC15918","droplet/nuclear area B-score, replicate 1":-0.906}
{"gene knocked down":"CG5080","dsRNA":"DRSC00677","droplet/nuclear area B-score, replicate 1":0.08}
{"gene knocked down":"park (parkin)","dsRNA":"DRSC11618","droplet/nuclear area B-score, replicate 1":-0.205}
{"gene knocked down":"Sec20 (Secretory 20)","dsRNA":"DRSC12295","droplet/nuclear area B-score, replicate 1":-0.306}
{"gene knocked down":"CG10654","dsRNA":"DRSC09767","droplet/nuclear area B-score, replicate 1":1.49}
{"gene knocked down":"dgrn (degringolade)","dsRNA":"DRSC12154","droplet/nuclear area B-score, replicate 1":0.63}
{"gene knocked down":"arr (arrow)","dsRNA":"DRSC07451","droplet/nuclear area B-score, replicate 1":0.133}
{"gene knocked down":"mRpL12 (mitochondrial ribosomal protein L12)","dsRNA":"DRSC10467","droplet/nuclear area B-score, replicate 1":0.263}
